No constants are given. Whether binding was seen depends on the method and setting. In cells and extracts the contact can be indirect. Some entries that bind do so weakly or less than the wild type.
Experiments:
[1] = target: ALMS1 (Alstrom syndrome protein 1) (human) (UniProt Q8TCU4); experiment: co-immunoprecipitation with ALMS1 as bait, immunoblot; human mature adipocytes cultured without insulin
[2] = target: ALMS1 (Alstrom syndrome protein 1) (human) (UniProt Q8TCU4); experiment: co-immunoprecipitation with ALMS1 as bait, immunoblot; human mature adipocytes cultured with insulin

Sequences of proteins named here, by UniProt entry; tags and fusion partners are left off. A change or cut given only in a name is not applied to a line headed by its entry.
UniProt Q8TCU4: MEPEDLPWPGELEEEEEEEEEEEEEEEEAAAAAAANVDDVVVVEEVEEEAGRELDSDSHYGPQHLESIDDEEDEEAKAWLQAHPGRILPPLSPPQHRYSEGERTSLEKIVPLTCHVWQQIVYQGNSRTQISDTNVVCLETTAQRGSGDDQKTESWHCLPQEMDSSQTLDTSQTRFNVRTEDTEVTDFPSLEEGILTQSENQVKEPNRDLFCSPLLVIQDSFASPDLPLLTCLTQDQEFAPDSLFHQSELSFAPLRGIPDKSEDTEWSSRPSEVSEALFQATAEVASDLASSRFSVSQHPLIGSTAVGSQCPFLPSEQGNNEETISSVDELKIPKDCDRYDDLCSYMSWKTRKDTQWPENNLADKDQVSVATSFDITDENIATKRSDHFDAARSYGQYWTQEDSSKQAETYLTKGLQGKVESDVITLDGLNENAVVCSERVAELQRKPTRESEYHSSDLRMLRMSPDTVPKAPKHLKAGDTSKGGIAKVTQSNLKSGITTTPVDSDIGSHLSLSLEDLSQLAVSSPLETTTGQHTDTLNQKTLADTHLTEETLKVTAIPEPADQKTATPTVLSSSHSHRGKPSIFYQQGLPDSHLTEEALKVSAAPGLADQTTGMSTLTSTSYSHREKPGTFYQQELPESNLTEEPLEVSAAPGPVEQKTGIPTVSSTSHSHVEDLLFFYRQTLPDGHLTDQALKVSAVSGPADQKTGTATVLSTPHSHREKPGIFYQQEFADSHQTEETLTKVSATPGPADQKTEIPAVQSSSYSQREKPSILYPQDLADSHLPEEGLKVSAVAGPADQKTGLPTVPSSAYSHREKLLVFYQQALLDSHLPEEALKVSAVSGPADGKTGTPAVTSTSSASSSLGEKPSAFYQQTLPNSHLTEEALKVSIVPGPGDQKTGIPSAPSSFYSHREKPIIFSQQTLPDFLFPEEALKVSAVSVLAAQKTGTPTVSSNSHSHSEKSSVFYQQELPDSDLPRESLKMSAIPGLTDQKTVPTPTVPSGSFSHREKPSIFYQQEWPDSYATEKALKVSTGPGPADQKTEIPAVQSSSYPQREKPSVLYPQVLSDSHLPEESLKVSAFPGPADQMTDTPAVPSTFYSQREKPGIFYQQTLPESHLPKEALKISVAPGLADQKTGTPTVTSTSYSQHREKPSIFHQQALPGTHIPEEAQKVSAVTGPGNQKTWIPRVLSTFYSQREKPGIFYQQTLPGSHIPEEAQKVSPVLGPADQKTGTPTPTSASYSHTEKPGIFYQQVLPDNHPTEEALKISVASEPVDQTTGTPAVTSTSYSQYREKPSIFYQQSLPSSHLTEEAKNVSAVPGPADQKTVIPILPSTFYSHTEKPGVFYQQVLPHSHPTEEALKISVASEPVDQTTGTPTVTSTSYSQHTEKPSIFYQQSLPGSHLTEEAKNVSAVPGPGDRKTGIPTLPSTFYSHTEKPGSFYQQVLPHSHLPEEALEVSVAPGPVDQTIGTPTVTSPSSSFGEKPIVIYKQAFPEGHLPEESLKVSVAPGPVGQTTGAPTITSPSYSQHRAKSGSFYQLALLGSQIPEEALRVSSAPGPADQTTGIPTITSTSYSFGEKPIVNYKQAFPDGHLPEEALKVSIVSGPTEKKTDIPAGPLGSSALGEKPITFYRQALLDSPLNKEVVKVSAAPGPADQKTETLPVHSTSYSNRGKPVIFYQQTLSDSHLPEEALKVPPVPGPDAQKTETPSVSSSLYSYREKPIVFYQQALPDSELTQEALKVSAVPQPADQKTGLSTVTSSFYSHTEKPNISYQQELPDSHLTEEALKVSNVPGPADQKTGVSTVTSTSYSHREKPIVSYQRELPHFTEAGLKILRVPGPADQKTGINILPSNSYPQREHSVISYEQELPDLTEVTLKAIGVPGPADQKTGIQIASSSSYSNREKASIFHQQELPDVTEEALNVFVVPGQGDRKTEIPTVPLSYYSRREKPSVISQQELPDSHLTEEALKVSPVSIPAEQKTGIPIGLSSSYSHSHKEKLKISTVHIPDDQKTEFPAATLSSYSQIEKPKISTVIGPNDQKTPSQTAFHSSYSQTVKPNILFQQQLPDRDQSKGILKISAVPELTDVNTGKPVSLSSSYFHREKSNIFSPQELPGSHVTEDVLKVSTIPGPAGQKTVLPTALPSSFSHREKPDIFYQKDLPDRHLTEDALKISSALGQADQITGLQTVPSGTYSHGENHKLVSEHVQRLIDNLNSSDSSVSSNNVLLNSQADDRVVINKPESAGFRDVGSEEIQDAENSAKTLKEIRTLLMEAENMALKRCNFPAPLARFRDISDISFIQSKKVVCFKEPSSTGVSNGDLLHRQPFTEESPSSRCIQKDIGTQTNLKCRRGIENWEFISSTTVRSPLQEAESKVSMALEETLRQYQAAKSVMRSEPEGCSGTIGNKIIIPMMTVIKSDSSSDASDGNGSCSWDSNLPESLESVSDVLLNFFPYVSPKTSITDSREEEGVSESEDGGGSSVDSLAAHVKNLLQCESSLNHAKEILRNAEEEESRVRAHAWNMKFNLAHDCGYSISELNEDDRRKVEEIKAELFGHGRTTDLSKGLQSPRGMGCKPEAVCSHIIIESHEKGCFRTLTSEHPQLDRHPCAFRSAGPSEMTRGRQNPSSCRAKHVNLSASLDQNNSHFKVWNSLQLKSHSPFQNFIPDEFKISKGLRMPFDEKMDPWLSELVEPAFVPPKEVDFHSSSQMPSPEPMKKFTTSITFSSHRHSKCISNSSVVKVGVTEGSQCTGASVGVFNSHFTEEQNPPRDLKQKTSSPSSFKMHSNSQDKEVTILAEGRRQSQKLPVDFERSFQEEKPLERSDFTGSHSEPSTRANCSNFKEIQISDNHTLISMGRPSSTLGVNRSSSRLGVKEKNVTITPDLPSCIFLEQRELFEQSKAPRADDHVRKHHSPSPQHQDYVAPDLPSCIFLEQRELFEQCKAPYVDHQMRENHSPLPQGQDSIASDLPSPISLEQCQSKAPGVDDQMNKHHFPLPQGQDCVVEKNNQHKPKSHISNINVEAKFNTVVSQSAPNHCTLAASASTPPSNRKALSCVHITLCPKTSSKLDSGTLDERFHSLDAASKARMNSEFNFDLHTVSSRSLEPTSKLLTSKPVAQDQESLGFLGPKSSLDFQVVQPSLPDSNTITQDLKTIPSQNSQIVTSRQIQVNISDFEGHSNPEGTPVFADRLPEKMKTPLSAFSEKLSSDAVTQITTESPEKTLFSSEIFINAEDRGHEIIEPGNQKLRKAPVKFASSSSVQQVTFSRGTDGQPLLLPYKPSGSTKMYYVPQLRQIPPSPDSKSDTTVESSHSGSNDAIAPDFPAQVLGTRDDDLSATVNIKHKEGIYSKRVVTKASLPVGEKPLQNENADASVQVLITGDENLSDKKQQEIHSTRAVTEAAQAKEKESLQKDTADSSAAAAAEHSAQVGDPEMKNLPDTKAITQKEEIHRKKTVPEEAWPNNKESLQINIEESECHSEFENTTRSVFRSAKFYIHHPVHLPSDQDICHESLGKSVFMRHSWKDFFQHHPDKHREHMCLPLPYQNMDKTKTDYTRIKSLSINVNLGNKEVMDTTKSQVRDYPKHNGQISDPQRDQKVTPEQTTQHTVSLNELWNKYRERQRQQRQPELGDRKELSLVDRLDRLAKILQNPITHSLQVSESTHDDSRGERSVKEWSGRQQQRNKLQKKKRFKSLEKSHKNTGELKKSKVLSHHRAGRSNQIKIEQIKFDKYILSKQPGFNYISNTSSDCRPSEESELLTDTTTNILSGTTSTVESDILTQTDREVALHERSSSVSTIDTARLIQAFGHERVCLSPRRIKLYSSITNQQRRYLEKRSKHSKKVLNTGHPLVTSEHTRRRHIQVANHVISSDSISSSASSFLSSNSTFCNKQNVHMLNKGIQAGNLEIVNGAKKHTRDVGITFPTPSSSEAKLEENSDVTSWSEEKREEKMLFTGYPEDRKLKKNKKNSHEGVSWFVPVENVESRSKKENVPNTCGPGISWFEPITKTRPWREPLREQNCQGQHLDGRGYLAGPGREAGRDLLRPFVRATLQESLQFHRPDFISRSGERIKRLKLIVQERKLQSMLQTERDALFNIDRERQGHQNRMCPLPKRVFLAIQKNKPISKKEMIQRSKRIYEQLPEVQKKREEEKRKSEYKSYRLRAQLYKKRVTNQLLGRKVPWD

binding [1] | binding [2] | Molecule
binds | – | Protein kinase C alpha type (αPKC) (from UniProt P17252 2-672) (enzyme)
– | binds | TBC1D4 (TBC1 domain family member 4) (protein) MEPPSCIQDEPFPHPLEPEPGVSAQPGPGKPSDKRFRLWYVGGSCLDHRTTLPMLPWLMAEIRRRSQKPEAGGCGAPAAREVILVLSAPFLRCVPAPGAGASGGTSPSATQPNPAVFIFEHKAQHISRFIHNSHDLTYFAYLIKAQPDDPESQMACHVFRATDPSQVPDVISSIRQLSKAAMKEDAKPSKDNEDAFYNSQKFEVLYCGKVTVTHKKAPSSLIDDCMEKFSLHEQQRLKIQGEQRGPDPGEDLADLEVVVPGSPGDCLPEEADGTDTHLGLPAGASQPALTSSRVCFPERILEDSGFDEQQEFRSRCSSVTGVQRRVHEGSQKSQPRRRHASAPSHVQPSDSEKNRTMLFQVGRFEINLISPDTKSVVLEKNFKDISSCSQGIKHVDHFGFICRESPEPGLSQYICYVFQCASESLVDEVMLTLKQAFSTAAALQSAKTQIKLCEACPMHSLHKLCERIEGLYPPRAKLVIQRHLSSLTDNEQADIFERVQKMKPVSDQEENELVILHLRQLCEAKQKTHVHIGEGPSTISNSTIPENATSSGRFKLDILKNKAKRSLTSSLENIFSRGANRMRGRLGSVDSFERSNSLASEKDYSPGDSPPGTPPASPPSSAWQTFPEEDSDSPQFRRRAHTFSHPPSSTKRKLNLQDGRAQGVRSPLLRQSSSEQCSNLSSVRRMYKESNSSSSLPSLHTSFSAPSFTAPSFLKSFYQNSGRLSPQYENEIRQDTASESSDGEGRKRTSSTCSNESLSVGGTSVTPRRISWRQRIFLRVASPMNKSPSAMQQQDGLDRNELLPLSPLSPTMEEEPLVVFLSGEDDPEKIEERKKSKELRSLWRKAIHQQILLLRMEKENQKLEASRDELQSRKVKLDYEEVGACQKEVLITWDKKLLNCRAKIRCDMEDIHTLLKEGVPKSRRGEIWQFLALQYRLRHRLPNKQQPPDISYKELLKQLTAQQHAILVDLGRTFPTHPYFSVQLGPGQLSLFNLLKAYSLLDKEVGYCQGISFVAGVLLLHMSEEQAFEMLKFLMYDLGFRKQYRPDMMSLQIQMYQLSRLLHDYHRDLYNHLEENEISPSLYAAPWFLTLFASQFSLGFVARVFDIIFLQGTEVIFKVALSLLSSQETLIMECESFENIVEFLKNTLPDMNTSEMEKIITQVFEMDISKQLHAYEVEYHVLQDELQESSYSCEDSETLEKLERANSQLKRQNMDLLEKLQVAHTKIQALESNLENLLTRETKMKSLIRTLEQEKMAYQKTVEQLRKLLPADALVNCDLLLRDLNCNPNNKAKIGNKP

Source: US20170000857A1
